Measurements as given in patent US7601863B2, “Use of PPAR agonists for the treatment of congestive heart failure” (sanofi-aventis Deutschland GmbH, priority 2004, dated 2009).
For at least one compound, name, drawing or mass did not settle the structure.

System: rat model of chronic coronary artery ligation (myocardial infarction, congestive heart failure)
Assay: Proof of concept study: chronic heart failure after permanent left coronary artery occlusion; lung weight and isolated working heart after eight weeks of treatment
Type: in vivo, Male Wistar rats
Details: MI rats, eight weeks in chow; compound (I) 20 mg/kg/d, rosiglitazone 3 mg/kg/day
Text: In order to test the effect of specific activation of either PPARγ (rosiglitazone) or PPARα (compound of formula (I), (II) and (III)) on the improvement of CHF, a rat model of chronic coronary artery ligation was used because myocardial infarction is the most common cause for CHF in the industrialized countries.
Male Wistar rats were housed three per cage under standardized conditions of temperature, humidity, and light. They had free access to a standardized diet (sodium content 0.2%, Altromin, Lage, Germany) and tap drinking water. Chronic heart failure was induced by a permanent occlusion of the left coronary artery approximately 2 mm distal to its origin from the aorta resulting in a large infarction of the free left ventricular wall. Chronic treatment was initiated on the day after production of the myocardial infarction and continued for eight weeks.
The left atrium was cannulated by an incision of the left auricle. After a 15-minute equilibration period at a fixed perfusion pressure of 60 mmHg, the heart was switched into the working mode at a fixed filling pressure of 11 mm Hg. Then, afterload pressure was varied stepwise every two minutes from 40 to 140 mmHg. […] Flow and pressure signals were sampled at 500 Hz, averaged every 2 seconds. […] In addition, lung weight was measured as an index of pulmonary congestion, an indirect sign of CHF. […]

CN(CCOc1ccc(CC2SC(=O)NC2=O)cc1)c1ccccn1 (stereo not shown) [Rosiglitazone, rosiglitazone, reference compound]
Effect of chronic treatment on heart failure (in words): does not
